Test results taken from PMC4467130.
These are yes or no findings as the source states them, for the method shown. Binding seen in cells or lysates may run through a third protein. Some binding calls cover weakened binding; strength is not graded here.

Chains of the proteins cited; added tags and fusions are not shown.
UniProt P05549: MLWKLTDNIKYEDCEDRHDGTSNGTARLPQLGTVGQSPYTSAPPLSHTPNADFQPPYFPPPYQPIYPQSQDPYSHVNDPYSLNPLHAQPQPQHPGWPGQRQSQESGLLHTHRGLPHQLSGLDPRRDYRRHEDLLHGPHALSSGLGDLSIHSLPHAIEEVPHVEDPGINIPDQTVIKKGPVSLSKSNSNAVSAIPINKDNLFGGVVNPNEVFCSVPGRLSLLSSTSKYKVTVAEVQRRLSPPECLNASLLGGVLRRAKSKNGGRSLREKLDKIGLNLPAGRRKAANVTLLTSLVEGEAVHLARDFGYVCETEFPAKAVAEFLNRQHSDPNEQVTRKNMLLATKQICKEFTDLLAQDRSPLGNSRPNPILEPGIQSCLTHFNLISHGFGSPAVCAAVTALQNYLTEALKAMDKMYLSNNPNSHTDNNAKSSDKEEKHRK
UniProt Q09472: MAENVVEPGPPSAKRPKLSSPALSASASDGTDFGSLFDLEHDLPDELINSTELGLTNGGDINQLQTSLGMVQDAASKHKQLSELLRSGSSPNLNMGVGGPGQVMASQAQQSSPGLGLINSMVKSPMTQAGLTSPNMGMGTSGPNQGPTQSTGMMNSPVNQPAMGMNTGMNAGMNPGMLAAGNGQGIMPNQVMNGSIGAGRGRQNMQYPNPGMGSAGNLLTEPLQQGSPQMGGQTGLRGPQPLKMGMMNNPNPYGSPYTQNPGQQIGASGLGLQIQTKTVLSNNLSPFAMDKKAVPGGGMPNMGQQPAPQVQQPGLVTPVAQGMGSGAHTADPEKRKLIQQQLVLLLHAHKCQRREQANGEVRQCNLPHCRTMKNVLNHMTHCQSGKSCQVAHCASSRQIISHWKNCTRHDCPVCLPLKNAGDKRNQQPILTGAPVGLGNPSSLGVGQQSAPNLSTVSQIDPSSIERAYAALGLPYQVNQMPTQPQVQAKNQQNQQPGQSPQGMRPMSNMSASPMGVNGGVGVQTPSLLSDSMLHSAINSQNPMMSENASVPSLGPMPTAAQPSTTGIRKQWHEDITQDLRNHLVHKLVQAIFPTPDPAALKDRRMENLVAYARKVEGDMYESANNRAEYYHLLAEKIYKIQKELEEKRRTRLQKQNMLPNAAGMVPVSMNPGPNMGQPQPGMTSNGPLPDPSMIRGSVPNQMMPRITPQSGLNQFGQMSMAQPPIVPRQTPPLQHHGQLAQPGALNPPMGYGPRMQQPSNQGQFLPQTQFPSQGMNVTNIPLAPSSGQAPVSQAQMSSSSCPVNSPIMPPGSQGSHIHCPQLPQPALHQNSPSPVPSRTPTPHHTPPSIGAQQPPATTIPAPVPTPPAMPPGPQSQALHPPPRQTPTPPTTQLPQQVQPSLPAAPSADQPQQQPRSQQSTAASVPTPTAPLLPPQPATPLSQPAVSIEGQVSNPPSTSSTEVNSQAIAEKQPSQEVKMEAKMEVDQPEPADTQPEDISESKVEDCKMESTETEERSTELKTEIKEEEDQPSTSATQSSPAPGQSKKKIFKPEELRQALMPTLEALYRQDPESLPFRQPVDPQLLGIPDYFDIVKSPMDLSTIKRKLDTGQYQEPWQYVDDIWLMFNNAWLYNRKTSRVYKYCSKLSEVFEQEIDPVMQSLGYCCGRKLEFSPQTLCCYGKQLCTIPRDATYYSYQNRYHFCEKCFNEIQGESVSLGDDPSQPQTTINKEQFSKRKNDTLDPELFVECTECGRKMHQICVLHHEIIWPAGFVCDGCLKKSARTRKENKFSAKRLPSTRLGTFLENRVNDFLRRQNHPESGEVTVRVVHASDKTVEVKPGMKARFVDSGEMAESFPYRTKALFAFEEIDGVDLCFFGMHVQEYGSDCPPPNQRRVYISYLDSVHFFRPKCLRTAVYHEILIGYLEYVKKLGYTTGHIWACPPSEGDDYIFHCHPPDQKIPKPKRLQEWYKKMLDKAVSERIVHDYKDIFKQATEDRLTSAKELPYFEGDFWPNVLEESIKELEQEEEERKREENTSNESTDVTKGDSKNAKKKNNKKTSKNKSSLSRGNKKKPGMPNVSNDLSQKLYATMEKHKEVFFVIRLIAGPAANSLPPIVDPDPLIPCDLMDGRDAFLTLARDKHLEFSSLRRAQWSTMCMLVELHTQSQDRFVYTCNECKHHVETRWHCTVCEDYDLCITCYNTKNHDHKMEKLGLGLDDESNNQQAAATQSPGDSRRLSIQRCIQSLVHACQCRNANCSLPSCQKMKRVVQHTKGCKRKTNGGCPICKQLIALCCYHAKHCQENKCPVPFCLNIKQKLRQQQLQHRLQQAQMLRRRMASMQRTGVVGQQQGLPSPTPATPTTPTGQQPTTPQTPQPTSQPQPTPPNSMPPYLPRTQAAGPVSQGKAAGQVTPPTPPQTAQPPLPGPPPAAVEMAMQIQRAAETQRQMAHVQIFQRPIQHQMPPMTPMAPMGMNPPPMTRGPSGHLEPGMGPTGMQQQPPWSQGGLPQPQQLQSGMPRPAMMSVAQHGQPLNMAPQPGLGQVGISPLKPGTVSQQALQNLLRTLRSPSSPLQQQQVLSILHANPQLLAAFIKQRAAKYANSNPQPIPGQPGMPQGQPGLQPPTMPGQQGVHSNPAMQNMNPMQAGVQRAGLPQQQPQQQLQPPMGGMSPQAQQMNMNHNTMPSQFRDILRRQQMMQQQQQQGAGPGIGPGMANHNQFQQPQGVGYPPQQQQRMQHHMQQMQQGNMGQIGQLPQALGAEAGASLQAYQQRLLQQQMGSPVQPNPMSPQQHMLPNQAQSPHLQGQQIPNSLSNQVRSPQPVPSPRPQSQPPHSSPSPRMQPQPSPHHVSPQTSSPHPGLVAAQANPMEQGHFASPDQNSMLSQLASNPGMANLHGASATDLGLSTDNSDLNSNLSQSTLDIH

Columns and labels:
[1] = target: Activating enhancer-binding protein-2α (human (endogenous in CNE2)) (UniProt P05549); test: co-IP; nuclear extract proteins (800 μg) of CNE2 cells incubated with rabbit polyclonal antibody to AP-2α or p300 overnight at 4°C; protein A/G plus agarose; washed 3 times with RIPA buffer; Western blot with p300 or AP-2α antibody
[2] = target: p300 (human (endogenous in CNE2)) (UniProt Q09472); test: as above

binding [1] | binding [2] | Substance
binds |  | p300 (from UniProt Q09472 1-2414)
 | binds | Activating enhancer-binding protein-2α (from UniProt P05549 1-437)
